According to the supplement of paper PMC12282887:
Values are raw readings; no control value is given beside them.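 Maximum concentrations were near the MIC for antimicrobials, 500 µM for most other compounds, and as high as 1 mM for known inducer-like compounds. Deletion strains began with a tenfold smaller inoculum, and wells with growth under 10% of the overall median counted as non-growing.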

Test system: Escherichia coli BW25113
Experiment: growth (OD600 area under curve, 8 h) (OD600 x h); higher = more growth
Description: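 E. coli BW25113 reporter strains (wild type, ΔmarA, ΔsoxS, Δrob, each carrying one of 8 lux reporter plasmids) were grown in 40 µl LB in 384-well plates at 37°C, 800 rpm, with each compound at 4 two-fold concentrations, in biological duplicates. Growth is the baseline-corrected OD600 area under the curve over 8 h (0-8 h WT, 1-9 h deletion strains).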

C[C@H](CCC(=O)O)[C@H]1CC[C@H]2[C@@H]3CC[C@@H]4C[C@H](O)CC[C@]4(C)[C@H]3C[C@H](O)[C@]12C [Deoxycholic acid]
growth
Settings	reporter plasmid: EVC	reporter plasmid: acrABp	reporter plasmid: marRABp	reporter plasmid: micFp	reporter plasmid: ompFp	reporter plasmid: robp	reporter plasmid: soxSp	reporter plasmid: tolCp
24.5 µg/ml, genetic background: wild type	3.45	3.3	3.48	3.36	3.25	3.54	3.352	3.43
24.5 µg/ml, genetic background: ΔmarA	3.56	3.948	3.74	3.89	3.64	3.96	3.55	3.42
24.5 µg/ml, genetic background: Δrob	3.28	3.1	3.43	3.41	2.94	2.94	3.34	3.52
24.5 µg/ml, genetic background: ΔsoxS	3.59	3.68	3.48	3.27	3.38	3.53	3.43	3.41
49.1 µg/ml, genetic background: wild type	3.42	3.46	3.4	3.3	3.18	3.56	3.44	3.41
49.1 µg/ml, genetic background: ΔmarA	3.52	4.13	3.84	3.78	3.62	4.15	3.38	3.39
49.1 µg/ml, genetic background: Δrob	3.31	3.03	3.42	3.4	2.85	2.81	3.1	3.5
49.1 µg/ml, genetic background: ΔsoxS	3.55	3.43	3.39	3.218	3.45	3.16	3.28	3.43
98.1 µg/ml, genetic background: wild type	3.555	3.42	3.44	3.34	2.96	3.53	3.36	3.43
98.1 µg/ml, genetic background: ΔmarA	3.93	4.31	3.77	3.85	3.67	4.1	3.61	3.625
98.1 µg/ml, genetic background: Δrob	3.58	2.99	3.45	3.51	2.97	2.84	3.4	3.63
98.1 µg/ml, genetic background: ΔsoxS	3.73	3.57	3.48	3.43	3.48	3.26	3.496	3.67
196.3 µg/ml, genetic background: wild type	3.526	3.37	3.26	3.25	2.83	3.28	3.27	3.36
196.3 µg/ml, genetic background: ΔmarA	3.74	3.95	3.52	3.62	3.31	4	3.49	3.45
196.3 µg/ml, genetic background: Δrob	3.53	2.69	3.22	3.39	2.64	2.69	3.2	3.4357
196.3 µg/ml, genetic background: ΔsoxS	3.63	3.311	2.89	3.2	3.1	2.71	3.327	3.53

CC(C)Cc1ccc(C(C)C(=O)O)cc1 (stereo not given) [Ibuprofen]
growth
Settings	reporter plasmid: EVC	reporter plasmid: acrABp	reporter plasmid: marRABp	reporter plasmid: micFp	reporter plasmid: ompFp	reporter plasmid: robp	reporter plasmid: soxSp	reporter plasmid: tolCp
12.9 µg/ml, genetic background: wild type	2.97	2.73	3.14	3.04	2.81	3.193	2.958	3.13
12.9 µg/ml, genetic background: ΔmarA	3.55	4.22	3.7	3.37	3.46	3.88	2.99	2.93
12.9 µg/ml, genetic background: Δrob	2.82	2.73	3.21	3.33	2.38	2.56	2.92	2.85
12.9 µg/ml, genetic background: ΔsoxS	2.77	2.85	2.92	2.5	2.64	2.93	3.06	2.82
25.8 µg/ml, genetic background: wild type	2.77	2.65	3.14	2.81	2.74	2.98	2.643	2.84
25.8 µg/ml, genetic background: ΔmarA	3.33	4.05	3.3	3.15	2.9	2.86	2.82	2.9
25.8 µg/ml, genetic background: Δrob	2.75	3.17	3.29	3.03	2.31	2.53	2.75	2.8
25.8 µg/ml, genetic background: ΔsoxS	2.7	2.79	2.94	2.49	2.7	2.98	2.9	2.74
51.6 µg/ml, genetic background: wild type	2.85	2.66	3.31	2.99	2.98	3.18	2.86	3.08
51.6 µg/ml, genetic background: ΔmarA	3.63	4.41	4.03	3.42	3.44	4.04	3.25	3
51.6 µg/ml, genetic background: Δrob	2.75	2.78	3.25	3.1	2.77	2.68	2.81	2.92
51.6 µg/ml, genetic background: ΔsoxS	2.78	2.94	3.1	2.44	2.81	3.13	2.76	2.78
103.1 µg/ml, genetic background: wild type	2.67	2.79	3.27	2.67	2.9	3.05	2.48	2.76
103.1 µg/ml, genetic background: ΔmarA	3.48	3.79	3.35	3.14	2.97	4	3.007	3.02
103.1 µg/ml, genetic background: Δrob	2.48	3.23	3.58	3.06	2.4	2.54	2.74	2.92
103.1 µg/ml, genetic background: ΔsoxS	2.54	3.01	2.98	2.24	2.57	2.96	2.53	2.59

Nc1ccc(C(=O)O)cc1 [4-Aminobenzoic acid]
growth
Settings	reporter plasmid: EVC	reporter plasmid: acrABp	reporter plasmid: marRABp	reporter plasmid: micFp	reporter plasmid: ompFp	reporter plasmid: robp	reporter plasmid: soxSp	reporter plasmid: tolCp
8.6 µg/ml, genetic background: wild type	2.23	3.05	3	2.86	2.79	2.93	2.6	2.59
8.6 µg/ml, genetic background: ΔmarA	3.01	3.78	3.04	2.74	3.24	3.53	2.42	2.59
8.6 µg/ml, genetic background: Δrob	2.32	2.99	2.95	2.69	2.37	2.46	2.39	2.56
8.6 µg/ml, genetic background: ΔsoxS	2.54	2.63	3.05	2.12	2.52	3.06	2.72	2.5365
17.1 µg/ml, genetic background: wild type	2.18	2.8	2.85	2.82	2.67	2.82	2.48	2.48
17.1 µg/ml, genetic background: ΔmarA	2.66	3.68	3.01	2.53	3.04	3	2.14	2.49
17.1 µg/ml, genetic background: Δrob	2.5	2.82	2.83	2.72	2.15	2.35	2.28	2.56
17.1 µg/ml, genetic background: ΔsoxS	2.56	2.65	3.03	2.02	2.37	2.8	2.56	2.66
34.3 µg/ml, genetic background: wild type	1.83	3.29	3.26	2.64	3.02	3.13	2.38	2.46
34.3 µg/ml, genetic background: ΔmarA	3.47	4.52	4.16	2.72	3.612	4.32	2.44	2.92
34.3 µg/ml, genetic background: Δrob	2.23	3.29	3.36	2.6	2.87	2.76	2.04	2.39
34.3 µg/ml, genetic background: ΔsoxS	2.5	2.94	3.25	1.9	2.5	3.13	2.73	2.35
68.6 µg/ml, genetic background: wild type	1.79	2.89	2.94	2.38	2.425	2.62	2.159	2.319
68.6 µg/ml, genetic background: ΔmarA	3.02	3.81	3.2	2.553	2.92	3.73	2.06	2.5
68.6 µg/ml, genetic background: Δrob	2.41	2.8	2.97	2.26	2.08	2.32	1.85	2.24
68.6 µg/ml, genetic background: ΔsoxS	2.38	2.52	2.95	1.85	2.13	2.71	2.61	2.37

CC(=O)Oc1ccccc1C(=O)O [Acetylsalicylic acid]
growth
Settings	reporter plasmid: EVC	reporter plasmid: acrABp	reporter plasmid: marRABp	reporter plasmid: micFp	reporter plasmid: ompFp	reporter plasmid: robp	reporter plasmid: soxSp	reporter plasmid: tolCp
22.5 µg/ml, genetic background: wild type	2.59	3.05	3.17	2.78	2.66	3.019	2.55	2.757
22.5 µg/ml, genetic background: ΔmarA	2.84	3.98	3.26	3.04	3.11	3.39	2.44	2.65
22.5 µg/ml, genetic background: Δrob	2.76	2.93	3.06	2.63	2.53	2.65	2.33	2.6243
22.5 µg/ml, genetic background: ΔsoxS	2.89	3	3.04	2.49	3.15	3.11	2.87	2.8
45 µg/ml, genetic background: wild type	2.55	3.05	3.14	2.78	2.68	2.98	2.59	2.77
45 µg/ml, genetic background: ΔmarA	3.01	4.2	3.55	2.9	3.47	3.75	2.37	2.68
45 µg/ml, genetic background: Δrob	2.81	2.61	3.05	2.778	2.63	2.61	2.38	2.58
45 µg/ml, genetic background: ΔsoxS	2.802	2.9	3.11	2.61	3.11	3.03	2.8	2.91
90.1 µg/ml, genetic background: wild type	2.77	3.27	3.22	2.66	2.88	3.16	2.47	2.7
90.1 µg/ml, genetic background: ΔmarA	3.17	4.47	4.1	3.17	3.79	4.12	2.73	3.05
90.1 µg/ml, genetic background: Δrob	2.97	3.27	3.56	2.73	3.05	2.82	2.36	2.55
90.1 µg/ml, genetic background: ΔsoxS	2.981	3.2	3.31	2.67	3.42	3.65	3.07	2.84
180.2 µg/ml, genetic background: wild type	2.42	3.06	2.96	2.46	2.51	2.85	2.31	2.57
180.2 µg/ml, genetic background: ΔmarA	3.02	3.93	3.56	2.71	3.27	3.97	2.39	2.69
180.2 µg/ml, genetic background: Δrob	2.56	2.82	3.1	2.38	2.58	2.4	2	2.5
180.2 µg/ml, genetic background: ΔsoxS	2.42	2.55	2.9	1.9	2.54	3.07	2.51	2.36

O=C1CN(/N=C/c2ccc([N+](=O)[O-])o2)C(=O)N1 [Nitrofurantoin]
growth
Settings	reporter plasmid: EVC	reporter plasmid: acrABp	reporter plasmid: marRABp	reporter plasmid: micFp	reporter plasmid: ompFp	reporter plasmid: robp	reporter plasmid: soxSp	reporter plasmid: tolCp
0.45 µg/ml, genetic background: wild type	2.98	2.96	2.9	3.17	2.86	2.91	3.05	2.95
0.45 µg/ml, genetic background: ΔmarA	3.13	3.52	3.44	3.06	2.96	3.22	2.92	2.91
0.45 µg/ml, genetic background: Δrob	2.84	2.41	3.08	3.17	2.34	2.47	2.95	3.3
0.45 µg/ml, genetic background: ΔsoxS	3.15	3.09	2.88	2.86	2.64	2.7	3.06	3.1
0.89 µg/ml, genetic background: wild type	2.87	2.84	3.03	3	2.82	3.01	2.81	2.86
0.89 µg/ml, genetic background: ΔmarA	3.01	3.8	3.24	3.01	2.96	3.25	2.71	2.78
0.89 µg/ml, genetic background: Δrob	2.64	2.3	3.06	3.08	2.47	2.49	2.49	2.98
0.89 µg/ml, genetic background: ΔsoxS	2.71	2.86	2.87	2.56	2.58	2.65	2.76	2.8
1.8 µg/ml, genetic background: wild type	2.62	2.47	2.56	2.77	2.58	2.71	2.67	2.48
1.8 µg/ml, genetic background: ΔmarA	2.82	3.83	2.994	2.71	2.799	3.21	2.54	2.59
1.8 µg/ml, genetic background: Δrob	2.31	2.14	2.59	2.65	2	2.07	2.25	2.66
1.8 µg/ml, genetic background: ΔsoxS	2.62	2.74	2.58	2.13	2.39	2.83	2.57	2.5
3.6 µg/ml, genetic background: wild type	1.82	0.425	1.19	1.1	0.463	0.94	1.48	1.64
3.6 µg/ml, genetic background: ΔmarA	1.75	1.29	1.33	1.69	0.964	2.1	1.01	1.75
3.6 µg/ml, genetic background: Δrob	1.52	0.125	0.719	1.52	0.305	0.0968	0.926	1.92
3.6 µg/ml, genetic background: ΔsoxS	1.63	0.505	0.35	0.623	0.184	0.552	1.32	1.65
